Measured values from paper PMC8870398.
These are yes or no findings as the source states them, for the method shown. In cells and extracts the contact can be indirect. Some results given as binding are weak or reduced against the parent protein; the word gives no strength.

Sequences of proteins named here, by UniProt entry; tags and fusion partners are left off. A change or cut given only in a name is not applied to a line headed by its entry. A line that says so, or that is headed by a name, gives the form on record, which may keep a tag or linker.
UniProt Q5VT25: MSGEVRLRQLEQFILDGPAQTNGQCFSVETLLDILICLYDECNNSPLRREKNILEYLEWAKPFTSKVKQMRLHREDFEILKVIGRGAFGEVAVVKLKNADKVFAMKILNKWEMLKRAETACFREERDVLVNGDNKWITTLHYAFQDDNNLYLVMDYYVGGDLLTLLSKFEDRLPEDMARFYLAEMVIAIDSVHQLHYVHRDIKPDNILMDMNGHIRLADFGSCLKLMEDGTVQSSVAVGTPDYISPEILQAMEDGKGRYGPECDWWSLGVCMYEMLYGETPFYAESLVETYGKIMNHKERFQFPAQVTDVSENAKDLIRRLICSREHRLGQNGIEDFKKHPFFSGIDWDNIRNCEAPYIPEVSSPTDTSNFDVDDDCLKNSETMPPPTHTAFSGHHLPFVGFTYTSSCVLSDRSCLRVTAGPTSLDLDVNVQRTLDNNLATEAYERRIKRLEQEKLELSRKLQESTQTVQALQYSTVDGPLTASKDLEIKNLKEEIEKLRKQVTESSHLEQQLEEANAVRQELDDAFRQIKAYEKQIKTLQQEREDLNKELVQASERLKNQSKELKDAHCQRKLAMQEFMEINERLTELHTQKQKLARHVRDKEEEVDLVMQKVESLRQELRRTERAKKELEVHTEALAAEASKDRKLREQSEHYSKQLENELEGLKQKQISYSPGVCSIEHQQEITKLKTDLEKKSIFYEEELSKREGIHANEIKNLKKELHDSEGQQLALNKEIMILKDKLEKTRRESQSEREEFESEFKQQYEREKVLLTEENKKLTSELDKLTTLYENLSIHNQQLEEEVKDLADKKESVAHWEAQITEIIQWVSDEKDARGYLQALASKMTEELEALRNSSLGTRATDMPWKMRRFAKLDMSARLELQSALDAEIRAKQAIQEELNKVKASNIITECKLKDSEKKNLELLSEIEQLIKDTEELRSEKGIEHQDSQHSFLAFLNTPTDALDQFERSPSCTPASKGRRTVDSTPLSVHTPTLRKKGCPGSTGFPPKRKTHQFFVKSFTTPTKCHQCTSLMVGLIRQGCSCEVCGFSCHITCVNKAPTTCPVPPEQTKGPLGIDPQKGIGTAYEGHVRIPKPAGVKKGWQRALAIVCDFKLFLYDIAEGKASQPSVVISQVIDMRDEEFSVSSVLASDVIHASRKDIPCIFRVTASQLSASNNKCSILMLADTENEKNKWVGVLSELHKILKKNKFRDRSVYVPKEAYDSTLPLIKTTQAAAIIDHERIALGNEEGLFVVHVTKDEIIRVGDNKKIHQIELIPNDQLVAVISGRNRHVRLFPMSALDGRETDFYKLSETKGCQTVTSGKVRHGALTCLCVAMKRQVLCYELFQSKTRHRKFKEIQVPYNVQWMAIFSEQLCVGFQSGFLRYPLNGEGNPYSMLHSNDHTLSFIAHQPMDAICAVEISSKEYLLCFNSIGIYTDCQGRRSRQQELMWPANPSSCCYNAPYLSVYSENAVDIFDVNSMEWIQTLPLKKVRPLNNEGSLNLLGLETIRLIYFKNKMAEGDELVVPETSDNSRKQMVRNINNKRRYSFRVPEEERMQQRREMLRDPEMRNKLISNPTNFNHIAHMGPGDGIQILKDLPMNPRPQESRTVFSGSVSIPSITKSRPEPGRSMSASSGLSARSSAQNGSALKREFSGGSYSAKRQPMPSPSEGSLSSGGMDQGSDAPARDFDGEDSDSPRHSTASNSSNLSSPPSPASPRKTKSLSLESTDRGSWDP
human wild type ABCB4 (ABCB4-wt) isoform A (P21439-2, form named): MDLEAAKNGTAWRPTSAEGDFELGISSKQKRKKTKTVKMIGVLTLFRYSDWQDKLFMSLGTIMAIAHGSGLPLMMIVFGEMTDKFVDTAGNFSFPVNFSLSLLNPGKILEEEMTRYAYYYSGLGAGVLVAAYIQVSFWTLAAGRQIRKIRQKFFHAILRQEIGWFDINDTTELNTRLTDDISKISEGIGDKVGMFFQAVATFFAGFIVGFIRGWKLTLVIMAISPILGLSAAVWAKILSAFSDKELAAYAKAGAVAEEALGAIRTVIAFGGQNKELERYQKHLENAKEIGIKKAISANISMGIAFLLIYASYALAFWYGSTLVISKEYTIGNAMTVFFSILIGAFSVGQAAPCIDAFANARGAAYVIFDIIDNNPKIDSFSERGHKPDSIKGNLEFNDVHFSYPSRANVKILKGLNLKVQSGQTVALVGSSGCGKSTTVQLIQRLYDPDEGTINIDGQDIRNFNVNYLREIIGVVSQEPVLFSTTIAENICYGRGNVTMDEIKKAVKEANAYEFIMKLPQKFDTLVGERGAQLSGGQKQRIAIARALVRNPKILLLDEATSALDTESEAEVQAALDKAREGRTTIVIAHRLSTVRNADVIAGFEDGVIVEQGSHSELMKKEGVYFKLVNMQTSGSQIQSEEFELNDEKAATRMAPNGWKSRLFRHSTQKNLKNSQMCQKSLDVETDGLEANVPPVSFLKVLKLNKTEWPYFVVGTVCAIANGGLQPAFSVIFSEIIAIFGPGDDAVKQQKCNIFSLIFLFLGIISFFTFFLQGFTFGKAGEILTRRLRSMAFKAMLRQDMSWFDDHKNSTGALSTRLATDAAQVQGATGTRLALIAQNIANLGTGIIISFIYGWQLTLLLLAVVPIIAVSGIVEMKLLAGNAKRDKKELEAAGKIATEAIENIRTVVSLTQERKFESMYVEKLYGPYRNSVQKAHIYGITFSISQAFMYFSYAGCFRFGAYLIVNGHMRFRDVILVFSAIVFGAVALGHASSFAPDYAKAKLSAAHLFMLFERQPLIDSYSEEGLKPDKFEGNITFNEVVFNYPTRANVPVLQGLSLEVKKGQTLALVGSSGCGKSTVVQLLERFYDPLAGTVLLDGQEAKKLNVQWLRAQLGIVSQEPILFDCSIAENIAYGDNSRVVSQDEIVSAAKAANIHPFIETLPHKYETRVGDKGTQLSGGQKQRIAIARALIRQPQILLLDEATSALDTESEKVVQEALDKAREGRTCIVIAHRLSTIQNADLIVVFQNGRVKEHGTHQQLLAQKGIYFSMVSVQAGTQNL

Biological target: wild-type GFP-tagged human MRCKα (MRCKα-wt-GFP) (human) (UniProt Q5VT25)
Test: co-IP; HEK-293 cells co-transfected with ABCB4 and the GFP-tagged partner; lysis in 25 mmol/L Tris pH 7.4, 150 mmol/L NaCl, 1 mmol/L EDTA, 1% Triton X-100; anti-GFP or normal mouse IgG on beads, overnight at 4 °C; blot with anti-ABCB4

human wild type ABCB4 (ABCB4-wt) isoform A (from UniProt P21439-2 1-1279)
binding: binds
